Like-named read-outs stand apart in the source and are kept apart here. No constants are given. Whether binding was seen depends on the method and setting. Some results given as binding are weak or reduced against the parent protein; the word gives no strength.
T1: full-length TRAK2^1-914 (human) (UniProt O60296)
T1 sequence (chain, LD655 dye on the SNAP tag (imaging assays)): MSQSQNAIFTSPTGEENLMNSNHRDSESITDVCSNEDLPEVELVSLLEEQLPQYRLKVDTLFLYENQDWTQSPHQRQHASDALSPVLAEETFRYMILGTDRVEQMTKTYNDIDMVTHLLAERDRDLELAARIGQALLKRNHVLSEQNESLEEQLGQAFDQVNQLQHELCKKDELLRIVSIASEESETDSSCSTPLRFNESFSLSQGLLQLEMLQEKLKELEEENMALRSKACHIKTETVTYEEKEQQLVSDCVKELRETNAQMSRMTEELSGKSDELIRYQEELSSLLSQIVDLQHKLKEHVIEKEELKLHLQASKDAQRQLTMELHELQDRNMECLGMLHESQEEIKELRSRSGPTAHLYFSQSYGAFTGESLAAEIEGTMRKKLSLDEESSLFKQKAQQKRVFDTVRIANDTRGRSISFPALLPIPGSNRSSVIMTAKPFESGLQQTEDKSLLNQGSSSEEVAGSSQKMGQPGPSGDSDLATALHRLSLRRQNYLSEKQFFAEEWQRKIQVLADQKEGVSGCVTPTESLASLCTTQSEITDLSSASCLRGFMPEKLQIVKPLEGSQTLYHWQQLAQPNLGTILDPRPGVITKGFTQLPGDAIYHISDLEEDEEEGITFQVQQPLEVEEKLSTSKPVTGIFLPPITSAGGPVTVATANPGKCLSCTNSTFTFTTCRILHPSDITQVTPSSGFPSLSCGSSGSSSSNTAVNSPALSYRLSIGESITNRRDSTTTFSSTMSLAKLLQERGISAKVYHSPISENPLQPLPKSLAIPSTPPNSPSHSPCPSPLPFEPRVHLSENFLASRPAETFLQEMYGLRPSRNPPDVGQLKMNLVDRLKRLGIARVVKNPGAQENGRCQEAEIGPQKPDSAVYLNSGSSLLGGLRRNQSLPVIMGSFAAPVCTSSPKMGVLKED

By UniProt entry, the sequences of proteins in these tests, tags left out. Where a name states a change or a piece, a line headed by the entry shows the natural chain unless it says otherwise. Residues count along the entry.
UniProt P33176: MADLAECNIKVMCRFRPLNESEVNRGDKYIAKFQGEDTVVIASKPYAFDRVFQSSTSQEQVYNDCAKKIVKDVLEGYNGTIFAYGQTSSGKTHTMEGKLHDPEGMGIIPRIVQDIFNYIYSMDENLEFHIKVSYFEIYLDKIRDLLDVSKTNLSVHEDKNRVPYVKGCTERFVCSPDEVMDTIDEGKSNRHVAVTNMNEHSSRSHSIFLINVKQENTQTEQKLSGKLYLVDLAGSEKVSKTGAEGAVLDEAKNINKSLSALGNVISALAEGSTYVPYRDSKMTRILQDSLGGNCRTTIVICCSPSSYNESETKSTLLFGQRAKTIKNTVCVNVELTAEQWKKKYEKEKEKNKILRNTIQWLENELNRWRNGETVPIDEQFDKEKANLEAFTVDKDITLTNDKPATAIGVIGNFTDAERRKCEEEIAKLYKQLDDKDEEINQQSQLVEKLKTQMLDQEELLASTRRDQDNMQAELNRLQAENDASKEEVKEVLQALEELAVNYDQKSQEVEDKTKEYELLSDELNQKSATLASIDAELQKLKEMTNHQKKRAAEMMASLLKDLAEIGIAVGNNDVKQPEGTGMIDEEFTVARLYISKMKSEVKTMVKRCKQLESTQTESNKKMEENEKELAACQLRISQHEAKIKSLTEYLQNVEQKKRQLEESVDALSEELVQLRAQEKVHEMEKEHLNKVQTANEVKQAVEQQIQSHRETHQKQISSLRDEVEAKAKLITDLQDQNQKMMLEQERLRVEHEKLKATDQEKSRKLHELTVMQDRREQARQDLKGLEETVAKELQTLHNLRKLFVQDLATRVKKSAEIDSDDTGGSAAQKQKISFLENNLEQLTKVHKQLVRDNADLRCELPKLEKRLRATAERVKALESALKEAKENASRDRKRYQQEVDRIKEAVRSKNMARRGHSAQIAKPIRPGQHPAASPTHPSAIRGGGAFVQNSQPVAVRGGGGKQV
KIF5B^1-490: residues 1-490 of P33176
UniProt Q8IXI2, residues 1-592: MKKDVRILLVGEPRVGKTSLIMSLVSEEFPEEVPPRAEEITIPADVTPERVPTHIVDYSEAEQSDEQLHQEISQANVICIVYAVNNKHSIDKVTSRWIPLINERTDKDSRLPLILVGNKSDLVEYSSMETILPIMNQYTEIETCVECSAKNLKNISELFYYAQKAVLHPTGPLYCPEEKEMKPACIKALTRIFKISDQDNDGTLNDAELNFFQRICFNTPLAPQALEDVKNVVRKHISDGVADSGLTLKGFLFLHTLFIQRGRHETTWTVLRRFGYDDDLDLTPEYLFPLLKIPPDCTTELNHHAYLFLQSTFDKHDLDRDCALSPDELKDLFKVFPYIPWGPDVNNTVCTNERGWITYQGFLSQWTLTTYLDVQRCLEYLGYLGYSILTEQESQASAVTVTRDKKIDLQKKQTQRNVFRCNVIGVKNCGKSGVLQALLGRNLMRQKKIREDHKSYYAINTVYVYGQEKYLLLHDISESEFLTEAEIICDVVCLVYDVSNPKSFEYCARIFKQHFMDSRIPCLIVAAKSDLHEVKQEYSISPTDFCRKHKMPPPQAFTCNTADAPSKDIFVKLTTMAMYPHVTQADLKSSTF


Tests used:
Assay in all cases: co-IP
[1] = target: full-length human kinesin-1 heavy chain (KIF5B) (human) (UniProt P33176)
KIF5B^1-490 (human) = KIF5B^1-490 (human) (UniProt P33176)
[2] = target: T1, full-length TRAK2^1-914 (human)
[3] = target: full-length human kinesin-1 heavy chain (KIF5B) (human) (UniProt P33176); remark: listed apart in the source

Row | Molecule | binding [1] | binding (KIF5B^1-490 (human)) | binding [2] | binding [3]
1 | Miro1^1-592 (from UniProt Q8IXI2 1-592) (domain or fragment) | binds | no binding | binds | 
2 | TRAK2^1-360 (domain or fragment, human, UniProt O60296 1-360, looked up, LD555 or LD655 dye on the SNAP tag (imaging assays)) MSQSQNAIFTSPTGEENLMNSNHRDSESITDVCSNEDLPEVELVSLLEEQLPQYRLKVDTLFLYENQDWTQSPHQRQHASDALSPVLAEETFRYMILGTDRVEQMTKTYNDIDMVTHLLAERDRDLELAARIGQALLKRNHVLSEQNESLEEQLGQAFDQVNQLQHELCKKDELLRIVSIASEESETDSSCSTPLRFNESFSLSQGLLQLEMLQEKLKELEEENMALRSKACHIKTETVTYEEKEQQLVSDCVKELRETNAQMSRMTEELSGKSDELIRYQEELSSLLSQIVDLQHKLKEHVIEKEELKLHLQASKDAQRQLTMELHELQDRNMECLGMLHESQEEIKELRSRSGPTAHL |  |  |  | no binding (condition: without MAP7)
